From PubChem BioAssay AID504444 (National Center for Advancing Translational Sciences (NCATS), 2011)
The whole screen tested about 360,000 compounds, of which about 7,500 (2.1%) were called active. Inconclusive results, whose numbers are uncertain, are shown with a selection of clear calls. Calls follow the shape of the dose curve; as a rule, active = well fitted inhibition curve with a large enough effect; inconclusive = small, poorly fitted or top-dose-only effect, or effect the other way; inactive = flat fitted curve, though single readings scatter. Where the call is inconclusive, the potency comes from a doubtful curve fit.

Test: Nrf2 qHTS screen for inhibitors; also: nearly all actives have a fitted effect of over 60% in size
Details: A549 ARE-Fluc reporter, luciferase luminescence, 18-24 h; activity change, negative = inhibition: at 46 µM (top of the series)
Source text: NIH Molecular Libraries Probe Production Network [MLPCN]
NIH Chemical Genomics Center [NCGC]
Assay Provider: Shyam Biswal, Johns Hopkins University
Nrf2 is a transcription factor that maintains cellular redox homoestasis and protects cells from xenobiotics. Nrf2 binds to the antioxidant response element (ARE) to induce gene expression of a broad spectrum of genes that encode for antioxidants. […] Finding a small molecule that act as an inhibitor of Nrf2 function would represent a novel therapeutic target that could lead to improvement in survival of patients undergoing chemo- and/or radio- therapy.
This is the Nrf2 activity measured in the luminescent read.
1. Shibata, T., et al., Genetic Alteration of Keap1 Confers Constitutive Nrf2 Activation and Resistance to Chemotherapy in Gallbladder Cancer. Gastroenterology, 2008.
2. Sjoblom, T., et al., The consensus coding sequences of human breast and colorectal cancers. Science, 2006. 314(5797): p. 268-74.
NCGC Assay Protocol Summary:
A concentration-response assay was performed with A549 ARE_Fluc cells which are suspended in 5% FBS OPTI-MEM. Five uL were dispensed into 1536-well white TC-treated plate using the Kalypsys dispenser to achieve a density of 5000 cells/well in all columns except column 1. The plate is incubated at 37deg C at 5% CO2 for 2 hours before 23 nL of compounds are added with the Kalypsys pin tool equipped with a 1,536-pin array containing 10-nL slotted pins (FP1S10, 0.457-mm diameter, 50.8 mm long; V&P Scientific). The control compounds Budesonide and Staurosporine are both added at a concentration of 2mM and Budesonide is also added as a 1:10 titration, starting at 200uM, to achieve dose-response. After an 18-24 hour incubation at 37deg C at 5% CO2, 5ul of medium is added to column 1. Afterwards 1ul of 5x of CellTiter-Fluor (Promega) is added to every well. The plate is then incubated at 37deg C at 5% CO2 for 30 minutes before they are read on the ViewLux (Perkin Elmer) for a fluorescent read Ex=405(10)/Em=525(10) for a 3 second exposure, 2x binning, and high gain. Then 3 uL of 3x BugLite is dispensed into all wells and the plate is incubated at ambient room temperature for 15 minutes. Afterwards another ViewLux read is performed using the clear filter to get a luminescent read with the settings of 40 second exposure, 2x binning, and high gain. Cytotoxicity is assessed through the first fluorescent read and then biochemical activity against Nrf2 is measured in the luminescent read.
% is scaled to controls: 0 for no effect and ±100 for the full control effect; potency is read from the fitted curve at half-maximal effect.

Structure (SMILES)	Potency	activity change, negative = inhibition
CN1CCN(c2ccc(-c3cccc(NC(=O)COc4ccccc4)c3)nn2)CC1	inconclusive: 11.6 µM [activator, partial curve]	–
Cc1ccc(NC(=O)Nc2ccc3c(c2)N(C)C(=O)CS3)cc1C	inconclusive: 20.6 µM [falling, single point]	–
Cc1cc(NC(=O)c2ccc(N(C)S(=O)(=O)c3ccccc3)cc2)no1	inconclusive: 16.4 µM [falling, single point]	–
CC(SC#N)C(=O)C12CC3CC(CC(C3)C1)C2 (stereo unspecified)	inconclusive: 25.9 µM [falling, partial curve, poor fit]	–
Cc1cc(C)c(-c2csc(NC(=O)c3n[nH]c(=O)c4ccccc34)n2)c(C)c1	inconclusive: 3.66 µM [falling, partial curve, poor fit]	–
CCOc1ccc(OCC)c(NC(=O)C(NS(=O)(=O)c2cccs2)c2ccccc2)c1 (stereo unspecified)	inconclusive: 14.6 µM [falling, single point]	–
Cc1ccc(Cc2nnc3n(-c4cccc(C)c4)nc(C(=O)c4ccccc4)n3c2=O)cc1	inconclusive: 32.6 µM [falling, single point]	–
O=C1CSC(=S)N1c1cccc(Br)c1	inconclusive: 20.6 µM [falling, single point]	–
O=C(/C=C/c1ccc(OCCCF)cc1)N1CCN(Cc2ccccc2)CC1	inconclusive: 23.1 µM [falling, single point]	–
COc1cccc(NS(=O)(=O)c2ccc3[nH]cc(C(=O)NCCC(C)C)c(=O)c3c2)c1	active: 16.4 µM	–
CCOc1ccc(NC(=O)CSc2nc3ccccc3c(=O)n2CCNC(C)=O)cc1	inconclusive: 23.1 µM [activator, single point]	–
C#CCOCCOCCOCCNc1nc(N2CCN(C(=O)CCCCCCCCCCNC(=O)Cn3cc(C[C@@H](C)O)nn3)CC2)nc(N2CCN(C(=O)CCCCCCCCCCNC(=O)[C@H](CCCCN)n3cc(C[C@@H](C)CC)nn3)CC2)n1	inconclusive: 18.4 µM [falling, single point]	–
Cc1ccccc1N=Cc1c(O)n(-c2nccs2)c(=O)c2ccccc12	inconclusive: 2.59 µM [falling, full curve]	–
Cc1ccc(C(=O)Nc2cc3c(oc2=O)CCCC3=O)cc1	inconclusive: 2.59 µM [activator, partial curve, poor fit]	–
Cc1cc(C)c(C(N)=O)c(SCC(=O)c2cc(C)n(-c3cc(C)on3)c2C)n1	active: 2.31 µM	–
CCOc1cc(-c2ccc(OC(=O)c3ccc(C)cc3)c(OC)c2)cc(=O)c2c(C)oc(C)c12	inconclusive: 14.6 µM [falling, partial curve, poor fit]	–
O=C(CSc1ccc(Br)cc1)Nc1cccc(S(=O)(=O)N2CCOCC2)c1	inconclusive: 29.1 µM [falling, single point]	–
COCCCn1c(SCC(=O)NC(C)C)nnc1-c1ccccc1	inconclusive: 3.66 µM [falling, partial curve, poor fit]	–
COc1cc(OC)cc(-c2cc3cc(F)ccc3cn2)c1	inconclusive: 5.8 µM [activator, partial curve]	–
N#Cc1c(-n2ncnc2-c2ccccc2C(F)(F)F)sc2c1CCCCC2	inconclusive: 2.59 µM [activator, partial curve]	–
CCCN(CCC)C(=O)CSc1nc2n[nH]c(C)c2c(=N)n1-c1ccc(OC)cc1	active: 18.4 µM	–

An excerpt of these results, with bars between the fields.
Structure (SMILES) | Potency | activity change, negative = inhibition
Cc1ccc(NC(=O)Nc2ccc3c(c2)N(C)C(=O)CS3)cc1C | inconclusive: 20.6 µM [falling, single point] | –
CC(SC#N)C(=O)C12CC3CC(CC(C3)C1)C2 (stereo unspecified) | inconclusive: 25.9 µM [falling, partial curve, poor fit] | –
CCOc1ccc(OCC)c(NC(=O)C(NS(=O)(=O)c2cccs2)c2ccccc2)c1 (stereo unspecified) | inconclusive: 14.6 µM [falling, single point] | –
O=C1CSC(=S)N1c1cccc(Br)c1 | inconclusive: 20.6 µM [falling, single point] | –
O=C(/C=C/c1ccc(OCCCF)cc1)N1CCN(Cc2ccccc2)CC1 | inconclusive: 23.1 µM [falling, single point] | –
CCOc1ccc(NC(=O)CSc2nc3ccccc3c(=O)n2CCNC(C)=O)cc1 | inconclusive: 23.1 µM [activator, single point] | –
C#CCOCCOCCOCCNc1nc(N2CCN(C(=O)CCCCCCCCCCNC(=O)Cn3cc(C[C@@H](C)O)nn3)CC2)nc(N2CCN(C(=O)CCCCCCCCCCNC(=O)[C@H](CCCCN)n3cc(C[C@@H](C)CC)nn3)CC2)n1 | inconclusive: 18.4 µM [falling, single point] | –
Cc1cc(C)c(C(N)=O)c(SCC(=O)c2cc(C)n(-c3cc(C)on3)c2C)n1 | active: 2.31 µM | –
CCCN(CCC)C(=O)CSc1nc2n[nH]c(C)c2c(=N)n1-c1ccc(OC)cc1 | active: 18.4 µM | –

The listing continues.

Structure (SMILES)	Potency	activity change, negative = inhibition
Nc1c(C(=O)Nc2ccc(S(=O)(=O)N3CCCC3)cc2)sc2nc3cc4c(cc3cc12)CCC4	–	inactive: 1.86%
Cc1cc(C)c2cc3c(N)c(C(=O)N4CCc5ccccc5C4)sc3nc2c1	inconclusive: 29.1 µM [falling, single point]	–
S=C(NCc1cccnc1)Nc1ccc(Oc2ccc(Cl)cc2)cc1	inconclusive: 20.6 µM [falling, single point]	–
CC1CCCCN1C(=O)c1cc2c(=O)n3ccccc3nc2s1 (stereo unspecified)	inconclusive: 13 µM [activator, partial curve]	–
O=C1N=C(N2CCN(c3ccccc3)CC2)S/C1=C/c1cccs1	–	inactive: -1.4%
COc1ccccc1CCN1CCCC(CN(C)C(=O)c2ccc3nc[nH]c3c2)C1 (stereo unspecified)	–	inactive: -1.53%
Cc1cc(C)c2c(CC(=O)Nc3ccc(S(=O)(=O)N4CCCCC4)cc3)coc2c1	inconclusive: 29.1 µM [falling, partial curve, poor fit]	–
O=[N+]([O-])c1ccc(S(=O)(=O)N2CCN(c3ccc(N4CCOCC4)nn3)CC2)cc1	inconclusive: 0.058 µM [falling, full curve, poor fit]	–
COc1cccc(-c2nn(C)c3sc(C(=O)NCc4ccco4)cc23)c1	inconclusive: 29.1 µM [falling, single point]	–
COc1ccc([N+](=O)[O-])cc1NC(=O)C(C)Sc1ccc(C)cc1 (stereo unspecified)	active: 18.4 µM	–
O=C(/C=C/c1ccccc1)Nc1cccnc1	inconclusive: 4.11 µM [activator, partial curve, poor fit]	–
Cc1[nH]c2ccccc2c1SCCNC(=O)c1ccc(Br)o1	active: 23.1 µM	–
COc1ccc(-c2cc(C(=O)Nc3cccc(O)c3)on2)cc1OC	–	inactive: 23.6%
COc1ccc(CCNc2ncnc3c2nnn3Cc2ccccc2)cc1OC	inconclusive: 25.9 µM [falling, partial curve, poor fit]	–
O=C(NC(=S)Nc1ccc(Cl)c(C(=O)O)c1)c1ccc(OCc2ccccc2)cc1	–	inactive: -12.6%
CCCCC(CC)CNCc1cccn1CCN1CCOCC1 (stereo unspecified)	inconclusive: 29.1 µM [falling, single point]	–
COc1ccc(-c2noc(CSc3nc4ccccc4c(=O)n3-c3ccccc3)n2)cc1OC	inconclusive: 23.1 µM [falling, partial curve, poor fit]	–
CC1CCC(NC(=O)c2ccc(CS(=O)(=O)c3cccc(C(F)(F)F)c3)o2)CC1 (stereo unspecified)	inconclusive: 23.1 µM [falling, single point]	–
COc1cccc(C2=NS(=O)(=O)N(C)C(C(=O)Nc3ccccc3SC)=C2)c1	–	inactive: 27.2%
COc1ccc(NC(=O)c2n[nH]c(=O)c3ccccc23)cc1S(=O)(=O)N1CCCCC1	inconclusive: 29.1 µM [falling, single point]	–
